The record followed here is publication PMC5870580.

Amino acid sequences for entries named in this document (tags omitted).
UniProt P37238: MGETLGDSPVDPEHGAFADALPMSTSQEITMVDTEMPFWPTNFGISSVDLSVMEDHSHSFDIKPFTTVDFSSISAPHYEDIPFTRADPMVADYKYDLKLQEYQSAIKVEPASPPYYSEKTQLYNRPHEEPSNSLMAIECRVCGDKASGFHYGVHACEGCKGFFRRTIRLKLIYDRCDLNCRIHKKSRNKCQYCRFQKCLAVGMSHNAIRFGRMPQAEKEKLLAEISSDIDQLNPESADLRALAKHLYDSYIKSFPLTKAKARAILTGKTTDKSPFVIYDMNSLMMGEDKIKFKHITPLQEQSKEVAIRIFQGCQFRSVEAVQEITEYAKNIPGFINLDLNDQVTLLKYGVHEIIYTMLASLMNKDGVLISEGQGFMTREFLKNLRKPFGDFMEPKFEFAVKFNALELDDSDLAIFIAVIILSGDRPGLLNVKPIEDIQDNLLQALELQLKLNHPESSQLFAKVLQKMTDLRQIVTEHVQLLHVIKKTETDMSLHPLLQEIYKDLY
UniProt Q96EB6: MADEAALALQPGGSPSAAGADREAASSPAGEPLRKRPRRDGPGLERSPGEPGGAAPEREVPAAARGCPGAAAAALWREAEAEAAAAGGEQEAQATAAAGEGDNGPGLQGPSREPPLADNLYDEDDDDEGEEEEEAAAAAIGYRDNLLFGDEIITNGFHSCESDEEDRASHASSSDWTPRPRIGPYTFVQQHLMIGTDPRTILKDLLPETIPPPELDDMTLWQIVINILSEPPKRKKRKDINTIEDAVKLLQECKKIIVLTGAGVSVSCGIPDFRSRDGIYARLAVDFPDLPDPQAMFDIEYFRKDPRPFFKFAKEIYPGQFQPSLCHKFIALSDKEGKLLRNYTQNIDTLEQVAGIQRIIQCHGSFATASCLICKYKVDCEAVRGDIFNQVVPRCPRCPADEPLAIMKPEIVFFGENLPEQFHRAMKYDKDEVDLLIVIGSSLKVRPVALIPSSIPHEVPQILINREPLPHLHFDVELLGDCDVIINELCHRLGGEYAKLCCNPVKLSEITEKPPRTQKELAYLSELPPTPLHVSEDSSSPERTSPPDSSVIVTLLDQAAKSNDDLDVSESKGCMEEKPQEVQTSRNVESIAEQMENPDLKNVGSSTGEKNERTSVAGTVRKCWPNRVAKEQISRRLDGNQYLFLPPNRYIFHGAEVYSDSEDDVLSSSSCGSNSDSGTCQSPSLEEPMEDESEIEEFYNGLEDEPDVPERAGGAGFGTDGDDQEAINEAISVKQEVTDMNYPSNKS
UniProt P37231: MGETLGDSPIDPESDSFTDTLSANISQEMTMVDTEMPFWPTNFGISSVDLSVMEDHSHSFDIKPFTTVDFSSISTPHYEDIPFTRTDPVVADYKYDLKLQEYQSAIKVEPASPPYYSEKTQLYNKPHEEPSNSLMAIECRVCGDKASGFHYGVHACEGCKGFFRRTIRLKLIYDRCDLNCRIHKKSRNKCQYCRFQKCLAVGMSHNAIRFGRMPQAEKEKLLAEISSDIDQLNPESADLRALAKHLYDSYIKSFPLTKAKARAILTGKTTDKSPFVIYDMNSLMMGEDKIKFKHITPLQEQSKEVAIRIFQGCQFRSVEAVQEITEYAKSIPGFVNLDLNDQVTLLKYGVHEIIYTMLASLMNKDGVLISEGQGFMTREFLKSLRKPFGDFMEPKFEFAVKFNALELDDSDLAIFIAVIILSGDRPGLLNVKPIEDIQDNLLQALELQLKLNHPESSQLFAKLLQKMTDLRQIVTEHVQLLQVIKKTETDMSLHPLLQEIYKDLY

Results are given in words; binding and its absence hold for the method and conditions named. In cells and extracts the contact can be indirect. Some binding calls cover weakened binding; strength is not graded here. For some of these results: Tags and fused reporters may be left off the sequences shown.

Experiment [1] deals with T1, GST-CACUL1 (human) (UniProt Q86Y37).
T1 sequence: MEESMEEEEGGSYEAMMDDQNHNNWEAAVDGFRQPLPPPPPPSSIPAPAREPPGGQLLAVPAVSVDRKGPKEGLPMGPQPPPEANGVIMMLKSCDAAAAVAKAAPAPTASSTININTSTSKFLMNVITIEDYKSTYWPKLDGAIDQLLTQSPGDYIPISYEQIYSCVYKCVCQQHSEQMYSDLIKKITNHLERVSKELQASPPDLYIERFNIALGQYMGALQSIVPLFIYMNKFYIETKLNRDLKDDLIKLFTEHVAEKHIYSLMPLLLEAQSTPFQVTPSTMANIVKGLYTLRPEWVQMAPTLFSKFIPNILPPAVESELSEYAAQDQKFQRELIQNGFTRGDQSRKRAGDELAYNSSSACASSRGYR
Kind of experiment: pull-down; GST-CACUL1 on glutathione Sepharose beads incubated with in vitro translated Myc-PPARγ in the presence of the PPARγ agonist rosiglitazone; western blot with anti-Myc; only the target purified. Background: A western blot detects proteins with antibodies after separation by electrophoresis.

Experiment [2] addresses endogenous PPARγ of 3T3-L1 preadipocytes (mouse (endogenous in 3T3-L1)) (UniProt P37238). The experiment can be described thus: co-IP; endogenous proteins of 3T3-L1 preadipocytes; IP with anti-PPARγ antibody, western blot with anti-SIRT1 or anti-CACUL1.
In experiment [3] the target is Myc-SIRT1 (UniProt Q96EB6). The experiment can be described thus: co-IP; HEK293 cells co-transfected with tagged constructs; lysates incubated overnight at 4 °C with the antibody against the tag (1:200), protein A/G agarose beads, western blot; for GFP-CACUL1 and Myc-PPARγ with and without rosiglitazone.
Experiment [4] deals with Myc-PPARγ (UniProt P37231). The experiment is described as above.

Regarding “in vitro translated Myc-PPARγ (from UniProt P37231 1-505)”, the binding entry in experiment [1] is “binds”.

B1: endogenous CACUL1 of 3T3-L1 preadipocytes (protein, UniProt Q8R0X2 1-377)
chain: MEESMEEEEMLTYEAMMDDQNHNNWEAAADSFRQPPPAPPLPPPPPPRPSSSIPDPGRELPGGQLLAVHAGSMERKGPKEGLPMGPPPLPEPNGVIMMLKSCDAAAAVAKTAPAPTSSSTININTSTSKFLMNVITIEDYKSTYWPKLDGAIDQLLTQSPGDYIPISYEQIYSCVYKCVCQQHSEQMYSDLIKKITSHLERVSKELQASPPDLYIERFNIALGQYMGALQSIVPLFIYMNKFYIETKLNRDLKDDLIKLFTEHVAEKHIYSLMPLLLEAQSTPFQVTPSTMANIVKGLYTLRPEWVQMAPTLFSKFIPNILPPAVESELSEYAAQDQKLQRELIQNGFTRGDQSRKRAGDELAYNSPSACASSRGYR
B1: the binding result in experiment [2] is given as “binds”.

B2: FLAG-CACUL1 (protein, UniProt Q86Y37 1-369)
chain: T1 sequence
Consider B2, for which, in experiment [3], the binding result is reported as “binds”.

B3: GFP-CACUL1 (protein, UniProt Q86Y37 1-369)
chain: T1 sequence
In the case of B3, in experiment [4], the binding entry is given as “binds”.
